# Experimental data as given in the supplement of paper PMC8728848.
# The other results are listed elsewhere or left out.
# What was measured:
# Test in all cases: glycan array binding signal (z-score within array); higher = stronger binding
# Details in all cases: glycan notation: IUPAC condensed, linker removed
# [1] = biological target: Gal(b1-4)GlcNAc(b1-3)Gal(b1-4)GlcNAc(b1-3)Gal(b1-4)GlcNAc(b1-2)Man(a1-3)[Gal(b1-4)GlcNAc(b1-3)Gal(b1-4)GlcNAc(b1-3)Gal(b1-4)GlcNAc(b1-2)Man(a1-6)]Man(b1-4)GlcNAc(b1-4)GlcNAc
# How it was run: (§1)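 Glycan array binding is given as a within-array Z-score, which can be read as non-binding when negative. The arrays, 3228 of them, came from the Consortium for Functional Glycomics database and were retained only where the protein sequence was available. Z-scores were averaged across arrays of the same protein sequence at different concentrations or buffers and across linkers.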
# [2] = biological target: Gal(b1-4)GlcNAc(b1-3)Gal(b1-4)GlcNAc(b1-3)Gal(b1-4)GlcNAc(b1-2)Man(a1-3)[Gal(b1-4)GlcNAc(b1-3)Gal(b1-4)GlcNAc(b1-3)Gal(b1-4)GlcNAc(b1-2)Man(a1-6)]Man(b1-4)GlcNAc(b1-4)[Fuc(a1-6)]GlcNAc
# How it was run: as §1
# [3] = biological target: Gal(b1-4)GlcNAc(b1-3)Gal(b1-4)GlcNAc(b1-3)Gal(b1-4)GlcNAc(b1-2)[Gal(b1-4)GlcNAc(b1-3)Gal(b1-4)GlcNAc(b1-3)Gal(b1-4)GlcNAc(b1-6)]Man(a1-6)[Gal(b1-4)GlcNAc(b1-3)Gal(b1-4)GlcNAc(b1-3)Gal(b1-4)GlcNAc(b1-2)Man(a1-3)]Man(b1-4)GlcNAc(b1-4)[Fuc(a1-6)]GlcNAc
# How it was run: as §1
# [4] = biological target: Gal(b1-4)GlcNAc(b1-3)Gal(b1-4)GlcNAc(b1-3)Gal(b1-4)GlcNAc(b1-3)Gal(b1-4)GlcNAc(b1-2)Man(a1-3)[Gal(b1-4)GlcNAc(b1-3)Gal(b1-4)GlcNAc(b1-3)Gal(b1-4)GlcNAc(b1-3)Gal(b1-4)GlcNAc(b1-2)Man(a1-6)]Man(b1-4)GlcNAc(b1-4)GlcNAc
# How it was run: as §1
# [5] = biological target: Gal(b1-4)GlcNAc(b1-3)Gal(b1-4)GlcNAc(b1-3)Gal(b1-4)GlcNAc(b1-3)Gal(b1-4)GlcNAc(b1-2)Man(a1-3)[Gal(b1-4)GlcNAc(b1-3)Gal(b1-4)GlcNAc(b1-3)Gal(b1-4)GlcNAc(b1-3)Gal(b1-4)GlcNAc(b1-2)Man(a1-6)]Man(b1-4)GlcNAc(b1-4)[Fuc(a1-6)]GlcNAc
# How it was run: as §1
# [6] = biological target: Gal(b1-4)GlcNAc(b1-3)Gal(b1-4)GlcNAc(b1-3)Gal(b1-4)GlcNAc(b1-3)Gal(b1-4)GlcNAc(b1-2)[Gal(b1-4)GlcNAc(b1-3)Gal(b1-4)GlcNAc(b1-3)Gal(b1-4)GlcNAc(b1-3)Gal(b1-4)GlcNAc(b1-6)]Man(a1-6)[Gal(b1-4)GlcNAc(b1-3)Gal(b1-4)GlcNAc(b1-3)Gal(b1-4)GlcNAc(b1-3)Gal(b1-4)GlcNAc(b1-2)Man(a1-3)]Man(b1-4)GlcNAc(b1-4)[Fuc(a1-6)]GlcNAc
# How it was run: as §1
# [7] = biological target: Gal(b1-4)GlcNAc(b1-3)Gal(b1-4)GlcNAc(b1-3)Gal(b1-4)GlcNAc(b1-3)Gal(b1-4)GlcNAc(b1-3)Gal(b1-4)GlcNAc(b1-2)Man(a1-3)[Gal(b1-4)GlcNAc(b1-3)Gal(b1-4)GlcNAc(b1-3)Gal(b1-4)GlcNAc(b1-3)Gal(b1-4)GlcNAc(b1-3)Gal(b1-4)GlcNAc(b1-2)Man(a1-6)]Man(b1-4)GlcNAc(b1-4)GlcNAc
# How it was run: as §1
# [8] = biological target: Gal(b1-4)GlcNAc(b1-3)Gal(b1-4)GlcNAc(b1-3)Gal(b1-4)GlcNAc(b1-3)Gal(b1-4)GlcNAc(b1-3)Gal(b1-4)GlcNAc(b1-2)Man(a1-3)[Gal(b1-4)GlcNAc(b1-3)Gal(b1-4)GlcNAc(b1-3)Gal(b1-4)GlcNAc(b1-3)Gal(b1-4)GlcNAc(b1-3)Gal(b1-4)GlcNAc(b1-2)Man(a1-6)]Man(b1-4)GlcNAc(b1-4)[Fuc(a1-6)]GlcNAc
# How it was run: as §1
# [9] = biological target: Gal(b1-4)GlcNAc(b1-3)Gal(b1-4)GlcNAc(b1-3)Gal(b1-4)GlcNAc(b1-3)Gal(b1-4)GlcNAc(b1-3)Gal(b1-4)GlcNAc(b1-2)[Gal(b1-4)GlcNAc(b1-3)Gal(b1-4)GlcNAc(b1-3)Gal(b1-4)GlcNAc(b1-3)Gal(b1-4)GlcNAc(b1-3)Gal(b1-4)GlcNAc(b1-6)]Man(a1-6)[Gal(b1-4)GlcNAc(b1-3)Gal(b1-4)GlcNAc(b1-3)Gal(b1-4)GlcNAc(b1-3)Gal(b1-4)GlcNAc(b1-3)Gal(b1-4)GlcNAc(b1-2)Man(a1-3)]Man(b1-4)GlcNAc(b1-4)[Fuc(a1-6)]GlcNAc
# How it was run: as §1
# [10] = biological target: Gal(b1-4)GlcNAc(b1-3)Gal(b1-4)GlcNAc(b1-3)Gal(b1-4)GlcNAc(b1-3)Gal(b1-4)GlcNAc(b1-3)Gal(b1-4)GlcNAc(b1-3)Gal(b1-4)GlcNAc(b1-2)Man(a1-3)[Gal(b1-4)GlcNAc(b1-3)Gal(b1-4)GlcNAc(b1-3)Gal(b1-4)GlcNAc(b1-3)Gal(b1-4)GlcNAc(b1-3)Gal(b1-4)GlcNAc(b1-3)Gal(b1-4)GlcNAc(b1-2)Man(a1-6)]Man(b1-4)GlcNAc(b1-4)GlcNAc
# How it was run: as §1
# [11] = biological target: Gal(b1-4)GlcNAc(b1-3)Gal(b1-4)GlcNAc(b1-3)GalNAc
# How it was run: as §1
# [12] = biological target: Gal(b1-4)GlcNAc(b1-3)Gal(b1-4)GlcNAc(b1-3)[Gal(b1-4)GlcNAc(b1-3)Gal(b1-4)GlcNAc(b1-6)]GalNAc
# How it was run: as §1
# [13] = biological target: Gal(b1-4)GlcNAc(b1-3)Gal(b1-4)GlcNAc(b1-6)[Gal(b1-3)]GalNAc
# How it was run: as §1
# [14] = biological target: Gal(b1-4)GlcNAc(b1-3)Gal(b1-4)[Fuc(a1-3)]GlcNAc(b1-3)Gal(b1-4)[Fuc(a1-3)]GlcNAc
# How it was run: as §1
# [15] = biological target: Gal(b1-4)GlcNAc(b1-3)GalNAc
# How it was run: as §1
# [16] = biological target: Gal(b1-4)GlcNAc(b1-3)[Fuc(a1-3)GlcNAc(b1-6)]Gal(b1-4)Glc
# How it was run: as §1
# [17] = biological target: Gal(b1-4)GlcNAc(b1-3)[Gal(b1-4)GlcNAc(b1-6)]Gal(b1-4)GlcNAc
# How it was run: as §1
# [18] = biological target: Gal(b1-4)GlcNAc(b1-3)[GlcNAc(b1-6)]Gal(b1-4)GlcNAc
# How it was run: as §1
# [19] = biological target: Gal(b1-4)GlcNAc(b1-6)Gal(b1-4)GlcNAc
# How it was run: as §1
binder,measurement,setting,value
Thrombomodulin Lectin (Mus musculus) (protein) LSALAKLQPTGSQCVEHECFALFQGPATFLDASQACQRLQGHLMTVRSSVAADVISLLLSQSSMDLGPWIGLQLPQGCDDPVHLGPLRGFQWVTGDNHTSYSRWARPNDQTAPLCGPLCVTVSTATEAAPGEPAWEEKPCETETQGFLCEFYFTASCRVDPIPVREDTKEEEGAGEPPVSPTPGSPTGPPSARPVLDEPRVPITQNPCPPLKECPPCAAPDLEGGPSVFIFPPKIKDVLMISLSPMVTCVVVDVSEDDPDVQISWFVNNVEVHTAQTQTHREDYNSTLRVVSALPIQHQDWMSGKAFACAVNNRALPSPIEKTISKPRGPVRAPQVYVLPPPAEEMTKKEFSLTCMITGFLPAEIAVDWTSNGRTEQNYKNTATVLDSDGSYFMYSKLRVQKSTWERGSLFACSVVHEGLHNHLTTKTISRSLGK,glycan array binding signal (z-score),[1],0.742
same,glycan array binding signal (z-score),[2],1.73
same,glycan array binding signal (z-score),[3],-0.14
same,glycan array binding signal (z-score),[4],1.01
same,glycan array binding signal (z-score),[5],0.55
same,glycan array binding signal (z-score),[6],1.43
same,glycan array binding signal (z-score),[7],0.506
same,glycan array binding signal (z-score),[8],1.89
same,glycan array binding signal (z-score),[9],0.509
same,glycan array binding signal (z-score),[10],0.318
same,glycan array binding signal (z-score),[11],0.556
same,glycan array binding signal (z-score),[12],0.778
same,glycan array binding signal (z-score),[13],0.282
same,glycan array binding signal (z-score),[14],-0.67
same,glycan array binding signal (z-score),[15],-0.804
same,glycan array binding signal (z-score),[16],-0.306
same,glycan array binding signal (z-score),[17],-0.435
same,glycan array binding signal (z-score),[18],-0.552
same,glycan array binding signal (z-score),[19],0.375

# An excerpt of these results, tab-delimited.
binder	measurement	setting	value
Thrombomodulin Lectin (Mus musculus) (protein) LSALAKLQPTGSQCVEHECFALFQGPATFLDASQACQRLQGHLMTVRSSVAADVISLLLSQSSMDLGPWIGLQLPQGCDDPVHLGPLRGFQWVTGDNHTSYSRWARPNDQTAPLCGPLCVTVSTATEAAPGEPAWEEKPCETETQGFLCEFYFTASCRVDPIPVREDTKEEEGAGEPPVSPTPGSPTGPPSARPVLDEPRVPITQNPCPPLKECPPCAAPDLEGGPSVFIFPPKIKDVLMISLSPMVTCVVVDVSEDDPDVQISWFVNNVEVHTAQTQTHREDYNSTLRVVSALPIQHQDWMSGKAFACAVNNRALPSPIEKTISKPRGPVRAPQVYVLPPPAEEMTKKEFSLTCMITGFLPAEIAVDWTSNGRTEQNYKNTATVLDSDGSYFMYSKLRVQKSTWERGSLFACSVVHEGLHNHLTTKTISRSLGK	glycan array binding signal (z-score)	[10]	0.318
same	glycan array binding signal (z-score)	[11]	0.556
